Assay results taken from PubChem BioAssay AID1347076 (National Center for Advancing Translational Sciences (NCATS), 2019).
The campaign covered roughly 400,000 compounds. About 13,000 (3.2%) were called active. The inconclusive results got no clear call from the source; some entries with a clear call stand among them for comparison. The call rests on the fitted dose curve; in most records, active means well fitted cell-killing curve with a large enough effect; inconclusive means small, poorly fitted or top-dose-only effect, or effect the other way; inactive means flat fitted curve, though single readings scatter. A potency beside an inconclusive call is a rough fit, not a confirmed value.

Test: qHTS assay for MDR1-selective chemotherapeutics: Primary screen using the drug-selected MDR subline cells KB-V1; further: nearly all actives have a fitted effect of over 60% in size
Settings: KB-V1 MDR cells viability, CellTiter-Glo, 72 h; series mostly up to 46.1 µM
Method in brief: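 Drug-selected KB-V1 cells, grown in DMEM lacking phenol red with 10% FBS, receive compound titrations; after three days at 37 degrees C, surviving cell ATP is quantified by CellTiter-Glo luminescence and responses normalized and curve-fitted.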
Potency means the concentration at half of the fitted maximal effect.

Structure (SMILES)	Potency
CCC(C)(C)n1nnnc1CN1CCC(NC(=O)c2ccc(Br)cc2)CC1	inactive
COc1ccc(Cl)cc1NC(=O)CN(C)C(=O)Cc1n[nH]c(=O)c2ccccc12	inconclusive: 20.6 µM [cytotoxic, single point]
CCc1ccccc1N1CCN(S(=O)(=O)c2cc(OC)ccc2OC)CC1	inconclusive: 16.4 µM [cytotoxic, partial curve]
COc1cccc(NC(=O)c2ccc(CN3CCN(c4ccccc4)CC3)cc2)c1	inconclusive: 3.98 µM [cytotoxic, partial curve]
Cc1nn(Cc2ccccc2)c2c1C(c1cccc(Cl)c1)C(C#N)=C(N)O2 (stereo unspecified)	inconclusive: 23.1 µM [cytotoxic, single point]
Cc1cc(-c2nn(-c3ccccc3F)cc2CN2CCCC(O)C2)c(C)s1 (stereo unspecified)	inactive
CCOC(=O)CSc1nc2sc(C)c(C)c2c(=O)[nH]1	inconclusive: 5.8 µM [rising, partial curve]
Cc1cccn2cc(CSc3ccccc3N)nc12	active: 13 µM
COc1cccc(C(=O)Nc2ccc3[nH]c(=O)[nH]c3c2)c1OC	active: 0.731 µM
COc1cccc(-c2nc3c(C#N)c[nH]n3c2NC2CCCC2)c1OC	inactive
CC1CCCN(C(=O)COc2ccc(NC(=O)c3cccs3)cc2)C1 (stereo unspecified)	inconclusive: 18.4 µM [cytotoxic, partial curve, poor fit]
CCOc1ccccc1C(=O)Nc1c[nH]c(=O)[nH]c1=O	inconclusive: 0.731 µM [cytotoxic, full curve]
COc1cc2nc(NC(=O)c3ccc(S(=O)(=O)N4CCc5ccccc54)cc3)sc2cc1OC	active: 7.31 µM
Cc1cc(C)cc(C(O)c2ncc(-c3ccccc3C(F)(F)F)[nH]2)c1 (stereo unspecified)	inactive
COc1ccc(C(=O)CSc2cc(C)nc3nc(C)nn23)cc1OC	inconclusive: 18.4 µM [cytotoxic, single point]
CC(/C=C1\SC(=S)N(C(C(=O)O)c2ccccc2)C1=O)=C\c1ccccc1 (stereo unspecified)	inconclusive: 23.1 µM [rising, single point]
COc1ccccc1NC(=O)CSc1cn(CC(=O)N2CCCC2)c2ccccc12	inactive
CC(NC(=O)CSC1=NCCS1)c1ccccc1 (stereo unspecified)	inactive
CC(C)(C)C1CCc2c(sc(NC(=O)c3noc4c3CCCC4)c2C#N)C1 (stereo unspecified)	inconclusive: 9.2 µM [rising, partial curve]
CCc1ccc(OCC(=O)NNC(=O)c2cc(S(=O)(=O)N(C)C)ccc2N2CCCC2)cc1	inactive
CCOC(=O)c1c(C)[nH]c(C(C)=O)c1C	inconclusive: 6.51 µM [cytotoxic, partial curve]
COc1ccc(-c2nnc(NC(=O)c3ccc(S(=O)(=O)N(C)CC4CCCO4)cc3)o2)c(OC)c1 (stereo unspecified)	active: 5.8 µM
CC(C)Nc1nc(Cl)nc(NN(C)c2nc(N(C)C)nc(N(C)C)n2)n1	inconclusive: 3.66 µM [cytotoxic, full curve, poor fit]
C=C(C)COc1ccc(-c2[nH]ncc2Oc2ccccc2OCC)c(O)c1	inactive

Structure (SMILES)	Potency
O=c1[nH]/c(=C/c2ccc3c(c2)OCO3)c(=O)[nH]/c1=C\c1ccc2c(c1)OCO2	inactive
CCOC(=O)C1=CN(Cc2ccco2)S(=O)(=O)N(CC)C1c1ccccc1 (stereo unspecified)	inactive
O=C(Nc1cccc(Cl)c1)Nc1cccc(Cl)c1	inconclusive: 29.1 µM [cytotoxic, single point]
CCOCCCNC(=O)c1ccc2c(=O)n(CCCOCC)c(=S)[nH]c2c1	inconclusive: 14.6 µM [cytotoxic, single point]
O=C1OCCN1C(=O)[C@H]1[C@H](c2ccc([N+](=O)[O-])cc2)C(c2ccccc2)=NN1c1ccccc1	inactive
O=C(Cn1cc(S(=O)(=O)N2CCCC2)c(S(=O)(=O)N2CCCC2)c1)Nc1ccc(F)cc1	inconclusive: 23.1 µM [rising, partial curve, poor fit]
CCOC(=O)c1ccc(NC(=O)N2CC3CCCN3c3ccccc32)cc1 (stereo unspecified)	inactive
COc1ccc(-n2c(C)c3c(OC)cccc(=O)c3c2C)cc1	active: 18.4 µM
O=C(Nc1ccc(S(=O)(=O)N2CCCCCC2)cc1)c1ccc(Br)o1	active: 5.8 µM
Clc1ccc(Nc2c3c(nc4ncnn24)CCC3)cc1	active: 7.31 µM
Cc1ccc(N/C(N)=N/c2nc(CSc3ccc(C)cc3)cc(=O)[nH]2)cc1	inconclusive: 3.66 µM [cytotoxic, full curve]
O=C(Nc1ccnn1C1CCNCC1)c1ccc2c(c1)OCO2	inactive
Cc1ccc(S(=O)(=O)N2CCC(C)CC2)c([N+](=O)[O-])c1	inconclusive: 20.6 µM [cytotoxic, partial curve, poor fit]
Cc1cc(Nc2nc3ccccc3nc2Cl)n(-c2ccc([N+](=O)[O-])cc2)n1	inconclusive: 18.4 µM [cytotoxic, single point]
CC1=CC2=C(OC1N(C)C)c1cccc3cccc(c13)C2=O (stereo unspecified)	inconclusive: 10.3 µM [cytotoxic, partial curve, poor fit]
CC(C)(C)OC(=O)N1CCCN(C(c2cc3ccccc3o2)c2nnnn2C(C)(C)C)CC1 (stereo unspecified)	inconclusive: 6.51 µM [cytotoxic, partial curve]
O=C(CSc1ccc(Cl)cc1Cl)N1CCC(c2nc3ccccc3s2)CC1	inconclusive: 29.1 µM [cytotoxic, single point]
CC1=C(C(=O)N(C(C)C)C(C)C)CC(CC(=O)NCCCCc2ccccc2)C(=O)N1Cc1ccc(C(C)(C)C)cc1 (stereo unspecified)	inconclusive: 29.1 µM [cytotoxic, partial curve, poor fit]
COc1ccccc1NC(=O)C1=C(C)Nc2nc3ccccc3n2C1c1ccccc1Cl (stereo unspecified)	inconclusive: 10.3 µM [rising, partial curve]
CC1CCc2nc(NC(=O)Cc3cccs3)sc2C1 (stereo unspecified)	inconclusive: 29.1 µM [cytotoxic, single point]
Cc1c(C(=O)N2CCOCC2)[nH]c2c1C(=O)CC(c1ccccc1Cl)C2 (stereo unspecified)	inconclusive: 29.1 µM [cytotoxic, single point]
Cc1ccc(NC(=O)CCC(=O)N2Cc3ccccc3Oc3ncccc32)cc1Cl	inactive
CCOC(=O)c1cnc2ccc(OC)cc2c1Nc1ccc(OCc2ccccc2Cl)cc1	inconclusive: 8.2 µM [cytotoxic, partial curve, poor fit]
COc1ccc(C)cc1NC(=O)c1nnn(Cc2cccc(Br)c2)c1N	inactive

Structure (SMILES)	Potency
CCC(C)(C)n1nnnc1CN(Cc1cccs1)Cc1cc2cc(OC)ccc2[nH]c1=O	inactive
CC(OC(=O)c1ccc(-n2cnnn2)cc1)C(=O)N(C)c1ccccc1 (stereo unspecified)	inconclusive: 25.9 µM [cytotoxic, single point]
O=C1N/C(=N\N=C\c2cccs2)SC1Cc1ccc(Cl)c(Cl)c1 (stereo unspecified)	inactive
O=C(Cc1ccc2c(c1)OCCO2)N1CCN(S(=O)(=O)c2cccs2)CC1	inconclusive: 20.6 µM [cytotoxic, single point]
COc1ccc(N=c2oc3c(OC)cccc3cc2C(=O)NCc2ccco2)c(OC)c1	inconclusive: 2.59 µM [cytotoxic, full curve]
CN(Cc1ccc(F)cc1)C(=O)CNC(=O)c1ccc2c(c1)OCO2	inactive
O=C(CSc1nc2ccccc2s1)Nc1cc(S(=O)(=O)N2CCOCC2)ccc1Cl	active: 18.4 µM
COc1ccc(SCc2noc(C(=O)NC(C)C)c2C(=O)O)cc1	inconclusive: 18.4 µM [rising, single point]
O=C(c1ccco1)N1CCN(c2nc(C3CC3)nc3sc4c(c23)CCCC4)CC1	active: 20.6 µM
O=C(CSc1nnc(COc2ccccc2)o1)Nc1ccc(F)cc1	inactive
CCCN=C1N(C)C[C@@H]2[C@@H]3C(=O)N(C)C(=O)[C@@H]3[C@](Cc3ccccc3)(C(=O)OC)N12	inactive
Cc1cccc(-c2noc(CN(C(=O)/C=C/c3ccccc3Cl)C(C)C)n2)c1	inconclusive: 18.4 µM [cytotoxic, single point]
Cc1ccc(C(=O)N/C(=C/C=C\c2ccccc2)C(=O)NCc2ccco2)cc1	inconclusive: 9.2 µM [cytotoxic, partial curve]
Cc1ccc2oc(C(=O)Nc3ccc(S(=O)(=O)N4CCCCC4C)cc3)cc(=O)c2c1 (stereo unspecified)	inactive
O=C(c1ccoc1)N1CCN(c2cc(-c3cccc(F)c3)nc3cc(-c4cccc(Cl)c4)nn23)CC1	inactive
COC(=O)c1cc(NC(=O)COC(=O)CCc2c[nH]c3ccccc23)cc(C(=O)OC)c1	inconclusive: 29.1 µM [rising, single point]
CCOC(=O)c1nn(-c2ccc(F)cc2)c(=O)cc1OCC(=O)N1CCN(c2ccccc2)CC1	inconclusive: 23.1 µM [cytotoxic, single point]
CSc1cccc(NC(=S)N(Cc2ccc(C)cc2)Cc2cccnc2)c1	inconclusive: 16.4 µM [cytotoxic, partial curve]
Nc1cc(-c2ccc(Cl)cc2)nn1-c1ccccc1	inactive
CCC(=O)NC(c1ccc(C)cc1)c1ccc2cccnc2c1O (stereo unspecified)	inconclusive: 0.731 µM [cytotoxic, full curve, poor fit]
CCc1nc(NCC2CC2)c2nnn(Cc3ccccc3)c2n1	inconclusive: 7.31 µM [cytotoxic, partial curve]
CC(=O)Nc1ccc(/C=C/c2ccc3cccc([N+](=O)[O-])c3n2)cc1	inconclusive: 29.1 µM [cytotoxic, single point]
C=CCn1c(-c2cccs2)nc2nc3ccccc3nc21	inconclusive: 14.6 µM [cytotoxic, partial curve]
